{
  "sequences": {"note": "Sequences of proteins named here, by UniProt entry; tags and fusion partners are left off. A change or cut given only in a name is not applied to a line headed by its entry.", "UniProt Q86W50": "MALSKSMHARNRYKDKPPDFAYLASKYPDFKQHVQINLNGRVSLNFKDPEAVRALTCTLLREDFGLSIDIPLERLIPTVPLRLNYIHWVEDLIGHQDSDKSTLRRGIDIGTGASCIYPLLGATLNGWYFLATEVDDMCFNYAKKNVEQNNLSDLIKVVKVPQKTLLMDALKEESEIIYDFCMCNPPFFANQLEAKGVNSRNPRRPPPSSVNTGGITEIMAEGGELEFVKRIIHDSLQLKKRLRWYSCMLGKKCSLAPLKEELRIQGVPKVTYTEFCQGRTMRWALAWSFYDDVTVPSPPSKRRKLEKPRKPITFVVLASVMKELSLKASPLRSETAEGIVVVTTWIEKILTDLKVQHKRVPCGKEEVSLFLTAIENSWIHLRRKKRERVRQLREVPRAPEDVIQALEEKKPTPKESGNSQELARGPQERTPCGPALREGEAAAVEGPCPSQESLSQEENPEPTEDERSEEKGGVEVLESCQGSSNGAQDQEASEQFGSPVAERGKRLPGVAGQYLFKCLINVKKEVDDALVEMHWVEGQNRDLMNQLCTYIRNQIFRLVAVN", "UniProt Q6PJI9": "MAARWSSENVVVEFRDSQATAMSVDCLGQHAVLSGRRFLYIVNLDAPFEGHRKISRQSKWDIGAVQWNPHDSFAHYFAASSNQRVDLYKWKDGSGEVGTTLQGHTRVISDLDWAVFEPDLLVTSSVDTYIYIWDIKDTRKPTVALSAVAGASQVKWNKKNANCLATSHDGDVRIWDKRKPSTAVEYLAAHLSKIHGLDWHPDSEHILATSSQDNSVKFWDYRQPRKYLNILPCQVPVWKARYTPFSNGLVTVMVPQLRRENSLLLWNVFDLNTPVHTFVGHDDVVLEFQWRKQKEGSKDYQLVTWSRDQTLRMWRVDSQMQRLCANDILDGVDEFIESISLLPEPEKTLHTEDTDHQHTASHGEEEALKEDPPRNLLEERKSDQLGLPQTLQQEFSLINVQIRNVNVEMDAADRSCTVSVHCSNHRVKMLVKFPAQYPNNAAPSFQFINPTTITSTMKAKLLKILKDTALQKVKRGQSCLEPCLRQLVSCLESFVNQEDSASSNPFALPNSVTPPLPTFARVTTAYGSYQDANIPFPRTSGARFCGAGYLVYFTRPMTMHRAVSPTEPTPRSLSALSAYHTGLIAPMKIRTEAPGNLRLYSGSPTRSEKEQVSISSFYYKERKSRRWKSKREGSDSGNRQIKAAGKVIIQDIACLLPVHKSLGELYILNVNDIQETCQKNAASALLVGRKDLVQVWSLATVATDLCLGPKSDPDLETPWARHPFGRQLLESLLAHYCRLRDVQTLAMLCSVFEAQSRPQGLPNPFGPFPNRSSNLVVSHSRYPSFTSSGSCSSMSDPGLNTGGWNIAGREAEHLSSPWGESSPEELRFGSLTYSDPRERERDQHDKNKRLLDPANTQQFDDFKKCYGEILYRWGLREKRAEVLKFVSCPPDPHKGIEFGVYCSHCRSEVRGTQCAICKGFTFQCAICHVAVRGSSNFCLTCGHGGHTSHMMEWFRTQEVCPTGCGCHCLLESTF", "UniProt Q6QNY1": "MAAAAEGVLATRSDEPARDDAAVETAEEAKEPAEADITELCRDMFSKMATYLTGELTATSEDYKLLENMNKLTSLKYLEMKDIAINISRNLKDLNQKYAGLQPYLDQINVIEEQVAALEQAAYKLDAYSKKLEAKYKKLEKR", "UniProt Q86TB9": "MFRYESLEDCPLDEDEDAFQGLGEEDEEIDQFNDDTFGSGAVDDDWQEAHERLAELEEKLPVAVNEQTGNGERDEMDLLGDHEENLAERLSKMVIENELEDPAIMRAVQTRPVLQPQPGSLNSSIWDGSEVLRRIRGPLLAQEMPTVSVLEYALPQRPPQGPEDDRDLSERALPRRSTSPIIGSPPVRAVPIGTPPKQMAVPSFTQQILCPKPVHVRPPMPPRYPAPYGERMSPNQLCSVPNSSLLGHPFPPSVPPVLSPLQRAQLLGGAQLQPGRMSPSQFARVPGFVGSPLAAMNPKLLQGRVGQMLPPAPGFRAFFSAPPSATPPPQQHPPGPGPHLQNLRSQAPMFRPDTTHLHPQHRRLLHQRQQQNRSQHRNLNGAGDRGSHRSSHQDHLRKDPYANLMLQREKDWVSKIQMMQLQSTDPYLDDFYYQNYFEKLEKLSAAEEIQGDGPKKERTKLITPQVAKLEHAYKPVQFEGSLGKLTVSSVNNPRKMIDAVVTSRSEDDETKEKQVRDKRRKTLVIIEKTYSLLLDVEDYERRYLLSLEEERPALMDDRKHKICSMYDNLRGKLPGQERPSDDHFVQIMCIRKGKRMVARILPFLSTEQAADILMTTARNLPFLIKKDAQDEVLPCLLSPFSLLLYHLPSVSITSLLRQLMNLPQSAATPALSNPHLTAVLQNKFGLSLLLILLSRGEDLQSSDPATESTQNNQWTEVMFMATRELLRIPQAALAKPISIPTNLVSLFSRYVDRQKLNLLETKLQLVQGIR", "UniProt Q6UWP2": "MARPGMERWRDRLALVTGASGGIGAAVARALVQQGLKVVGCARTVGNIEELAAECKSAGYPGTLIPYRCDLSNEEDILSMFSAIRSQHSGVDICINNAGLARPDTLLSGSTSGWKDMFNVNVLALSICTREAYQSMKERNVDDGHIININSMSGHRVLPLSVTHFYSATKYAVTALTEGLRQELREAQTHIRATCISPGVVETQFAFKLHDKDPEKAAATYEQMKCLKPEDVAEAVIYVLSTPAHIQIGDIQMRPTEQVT", "UniProt Q709C8": "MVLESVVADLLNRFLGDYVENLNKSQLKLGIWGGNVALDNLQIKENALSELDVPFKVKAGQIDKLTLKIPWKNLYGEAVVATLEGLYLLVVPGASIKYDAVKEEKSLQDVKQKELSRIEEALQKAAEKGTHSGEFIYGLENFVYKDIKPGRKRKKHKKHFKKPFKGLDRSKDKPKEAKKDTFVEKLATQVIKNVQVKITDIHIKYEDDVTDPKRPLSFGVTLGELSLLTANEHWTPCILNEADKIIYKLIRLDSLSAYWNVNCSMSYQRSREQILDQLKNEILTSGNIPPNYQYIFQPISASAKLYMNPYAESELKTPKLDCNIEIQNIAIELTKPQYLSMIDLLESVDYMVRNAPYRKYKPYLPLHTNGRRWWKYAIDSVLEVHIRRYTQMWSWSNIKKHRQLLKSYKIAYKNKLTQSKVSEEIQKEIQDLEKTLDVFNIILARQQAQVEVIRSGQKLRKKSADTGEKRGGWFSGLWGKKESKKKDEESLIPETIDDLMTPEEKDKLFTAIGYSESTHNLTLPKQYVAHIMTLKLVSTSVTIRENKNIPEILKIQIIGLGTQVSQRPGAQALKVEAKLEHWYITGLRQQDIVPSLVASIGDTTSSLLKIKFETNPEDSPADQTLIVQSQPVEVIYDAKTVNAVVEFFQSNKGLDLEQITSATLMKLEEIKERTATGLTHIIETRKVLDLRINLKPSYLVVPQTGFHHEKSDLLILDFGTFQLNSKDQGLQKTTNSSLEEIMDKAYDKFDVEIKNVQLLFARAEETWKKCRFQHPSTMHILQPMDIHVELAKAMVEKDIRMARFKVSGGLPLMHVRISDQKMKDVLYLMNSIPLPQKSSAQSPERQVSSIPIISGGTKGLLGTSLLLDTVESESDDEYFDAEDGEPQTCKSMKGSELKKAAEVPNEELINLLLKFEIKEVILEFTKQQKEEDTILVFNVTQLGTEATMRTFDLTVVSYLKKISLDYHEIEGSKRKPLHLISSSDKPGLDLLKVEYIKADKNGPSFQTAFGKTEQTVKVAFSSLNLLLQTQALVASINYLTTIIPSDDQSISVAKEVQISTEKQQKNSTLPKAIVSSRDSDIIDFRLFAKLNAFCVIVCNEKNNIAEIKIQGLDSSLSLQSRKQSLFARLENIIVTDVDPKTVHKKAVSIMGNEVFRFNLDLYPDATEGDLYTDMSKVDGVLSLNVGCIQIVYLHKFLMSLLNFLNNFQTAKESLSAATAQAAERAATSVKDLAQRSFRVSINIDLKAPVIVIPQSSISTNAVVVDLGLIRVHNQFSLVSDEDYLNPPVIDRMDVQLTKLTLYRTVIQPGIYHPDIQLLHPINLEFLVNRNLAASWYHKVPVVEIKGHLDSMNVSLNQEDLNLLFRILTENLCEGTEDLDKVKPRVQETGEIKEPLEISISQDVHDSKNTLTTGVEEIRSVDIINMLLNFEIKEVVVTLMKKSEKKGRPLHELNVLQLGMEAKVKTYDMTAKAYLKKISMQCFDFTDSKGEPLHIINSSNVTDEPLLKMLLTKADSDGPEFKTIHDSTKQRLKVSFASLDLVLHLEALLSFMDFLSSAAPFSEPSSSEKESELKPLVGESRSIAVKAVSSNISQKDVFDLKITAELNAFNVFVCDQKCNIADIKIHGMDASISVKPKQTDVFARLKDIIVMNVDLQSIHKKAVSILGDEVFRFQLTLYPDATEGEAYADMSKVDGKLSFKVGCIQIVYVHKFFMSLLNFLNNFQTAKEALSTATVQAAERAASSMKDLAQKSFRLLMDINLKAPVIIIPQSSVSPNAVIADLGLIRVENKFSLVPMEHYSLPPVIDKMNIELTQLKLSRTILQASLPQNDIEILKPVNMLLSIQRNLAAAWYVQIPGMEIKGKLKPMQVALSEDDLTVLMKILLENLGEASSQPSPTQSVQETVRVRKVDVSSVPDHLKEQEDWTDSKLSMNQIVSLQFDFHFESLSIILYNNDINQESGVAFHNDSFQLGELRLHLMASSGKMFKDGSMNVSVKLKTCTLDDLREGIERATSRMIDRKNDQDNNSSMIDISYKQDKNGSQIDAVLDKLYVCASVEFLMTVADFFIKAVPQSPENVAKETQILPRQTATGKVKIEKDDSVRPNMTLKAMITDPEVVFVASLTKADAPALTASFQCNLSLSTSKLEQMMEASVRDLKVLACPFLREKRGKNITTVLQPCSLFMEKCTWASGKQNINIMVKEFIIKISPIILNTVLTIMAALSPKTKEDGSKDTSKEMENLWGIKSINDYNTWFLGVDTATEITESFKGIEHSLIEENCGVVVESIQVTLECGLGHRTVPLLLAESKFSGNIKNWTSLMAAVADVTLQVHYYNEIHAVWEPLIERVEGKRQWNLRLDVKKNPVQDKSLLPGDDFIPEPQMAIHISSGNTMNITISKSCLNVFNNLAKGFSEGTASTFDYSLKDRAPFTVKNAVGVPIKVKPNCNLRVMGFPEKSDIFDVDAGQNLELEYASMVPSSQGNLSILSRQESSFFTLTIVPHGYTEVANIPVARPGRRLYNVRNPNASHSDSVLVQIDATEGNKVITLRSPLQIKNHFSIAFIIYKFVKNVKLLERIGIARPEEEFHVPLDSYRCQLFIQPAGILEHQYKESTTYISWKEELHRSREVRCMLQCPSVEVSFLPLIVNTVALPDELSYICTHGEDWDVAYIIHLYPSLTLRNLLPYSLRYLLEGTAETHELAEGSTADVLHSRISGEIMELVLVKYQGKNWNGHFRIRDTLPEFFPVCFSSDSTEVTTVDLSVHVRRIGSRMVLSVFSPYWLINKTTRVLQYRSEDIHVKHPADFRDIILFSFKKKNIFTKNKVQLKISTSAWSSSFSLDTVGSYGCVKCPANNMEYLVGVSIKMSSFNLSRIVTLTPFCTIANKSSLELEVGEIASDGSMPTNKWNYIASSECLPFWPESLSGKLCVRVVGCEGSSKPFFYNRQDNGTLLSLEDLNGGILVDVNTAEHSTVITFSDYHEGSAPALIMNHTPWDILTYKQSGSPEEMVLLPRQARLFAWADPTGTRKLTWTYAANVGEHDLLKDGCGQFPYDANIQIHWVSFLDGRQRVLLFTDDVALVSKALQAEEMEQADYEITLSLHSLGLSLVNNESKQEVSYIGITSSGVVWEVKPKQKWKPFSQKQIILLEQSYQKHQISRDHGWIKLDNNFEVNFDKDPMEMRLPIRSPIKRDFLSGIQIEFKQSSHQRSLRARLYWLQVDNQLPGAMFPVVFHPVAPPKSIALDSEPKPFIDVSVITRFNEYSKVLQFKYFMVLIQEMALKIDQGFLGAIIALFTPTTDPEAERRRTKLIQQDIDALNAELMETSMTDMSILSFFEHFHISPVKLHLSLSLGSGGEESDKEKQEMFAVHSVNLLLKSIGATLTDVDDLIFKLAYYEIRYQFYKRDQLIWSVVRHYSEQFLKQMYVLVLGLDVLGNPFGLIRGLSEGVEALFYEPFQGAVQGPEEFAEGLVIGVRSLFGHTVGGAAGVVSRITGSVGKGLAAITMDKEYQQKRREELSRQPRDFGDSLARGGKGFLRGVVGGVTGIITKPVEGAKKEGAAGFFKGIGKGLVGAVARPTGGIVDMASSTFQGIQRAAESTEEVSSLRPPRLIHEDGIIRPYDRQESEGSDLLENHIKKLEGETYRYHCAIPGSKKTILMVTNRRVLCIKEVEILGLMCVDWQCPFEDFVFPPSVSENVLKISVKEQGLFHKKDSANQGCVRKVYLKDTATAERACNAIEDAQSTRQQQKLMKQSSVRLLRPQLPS"},
  "source": "the supplement of paper PMC6411743",
  "compound": "Nc1ncnc2c1ncn2[C@@H]1O[C@H](COP(=O)(O)OP(=O)(O)OP(=O)(O)O)[C@@H](O)[C@H]1O [adenosine triphosphate]",
  "experiment": "NP40-soluble protein abundance relative to vehicle (solubility fold change) (ratio); higher = more soluble protein in presence of ATP",
  "in_short": "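Jurkat crude lysate prepared with a Dounce homogeniser was treated at eight concentrations spanning 0.1 to 10 mM, 10 min at room temperature then 3 min at 37 °C. Solubilisation with 0.8% NP40 and benzonase and ultracentrifugation preceded TMT labelling of the supernatant for LC-MS/MS. Fold change against the detergent-processed vehicle was determined per replicate from vsn-normalised intensities, across three independent experiments.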",
  "note": "± gives the standard deviation of the averaged measurements. Only a part is listed here, and it is no random draw. Small differences around the control level are noise.",
  "data": [
    {"target": "UniProt Q86TN4 and related entries", "values": [
      {"measurement": "NP40-soluble protein abundance", "setting": "concentration: 0.1mM", "result": "1.01 ± 0.037"},
      {"measurement": "NP40-soluble protein abundance", "setting": "concentration: 0.5mM", "result": "0.997 ± 0.029"}
    ]},
    {"target": "UniProt Q86U86 and related entries", "values": [
      {"measurement": "NP40-soluble protein abundance", "setting": "concentration: 0.1mM", "result": "1.06 ± 0.03"},
      {"measurement": "NP40-soluble protein abundance", "setting": "concentration: 0.5mM", "result": "1.22 ± 0.046"}
    ]},
    {"target": "UniProt Q86W50", "values": [
      {"measurement": "NP40-soluble protein abundance", "setting": "concentration: 0.1mM", "result": "1.02 ± 0.025"},
      {"measurement": "NP40-soluble protein abundance", "setting": "concentration: 0.5mM", "result": "0.991 ± 0.03"}
    ]},
    {"target": "WDR59 (UniProt Q6PJI9)", "values": [
      {"measurement": "NP40-soluble protein abundance", "setting": "concentration: 0.1mM", "result": "1.01 ± 0.057"},
      {"measurement": "NP40-soluble protein abundance", "setting": "concentration: 0.5mM", "result": "1.06 ± 0.079"}
    ]},
    {"target": "UniProt Q6ZNJ1 and related entries", "values": [
      {"measurement": "NP40-soluble protein abundance", "setting": "concentration: 0.1mM", "result": "1.04 ± 0.06"},
      {"measurement": "NP40-soluble protein abundance", "setting": "concentration: 0.5mM", "result": "1.04 ± 0.035"}
    ]},
    {"target": "PLD3 (UniProt Q8IV08)", "values": [
      {"measurement": "NP40-soluble protein abundance", "setting": "concentration: 0.1mM", "result": "0.92 ± 0.045"},
      {"measurement": "NP40-soluble protein abundance", "setting": "concentration: 0.5mM", "result": "0.896 ± 0.076"}
    ]},
    {"target": "BLOC1S2 (UniProt Q6QNY1)", "values": [
      {"measurement": "NP40-soluble protein abundance", "setting": "concentration: 0.1mM", "result": "0.888 ± 0.14"},
      {"measurement": "NP40-soluble protein abundance", "setting": "concentration: 0.5mM", "result": "0.9544 ± 0.0033"}
    ]},
    {"target": "UniProt Q76FK4 and related entries", "values": [
      {"measurement": "NP40-soluble protein abundance", "setting": "concentration: 0.1mM", "result": "1.01 ± 0.023"},
      {"measurement": "NP40-soluble protein abundance", "setting": "concentration: 0.5mM", "result": "1.05 ± 0.042"}
    ]},
    {"target": "UniProt Q86TB9 and related entries", "values": [
      {"measurement": "NP40-soluble protein abundance", "setting": "concentration: 0.1mM", "result": "0.976 ± 0.027"},
      {"measurement": "NP40-soluble protein abundance", "setting": "concentration: 0.5mM", "result": "0.988 ± 0.03"}
    ]},
    {"target": "UniProt Q7Z3U7 and related entries", "values": [
      {"measurement": "NP40-soluble protein abundance", "setting": "concentration: 0.1mM", "result": "0.982 ± 0.026"},
      {"measurement": "NP40-soluble protein abundance", "setting": "concentration: 0.5mM", "result": "0.973 ± 0.053"}
    ]},
    {"target": "UniProt Q86TP1 and related entries", "values": [
      {"measurement": "NP40-soluble protein abundance", "setting": "concentration: 0.1mM", "result": "1.03 ± 0.016"},
      {"measurement": "NP40-soluble protein abundance", "setting": "concentration: 0.5mM", "result": "0.976 ± 0.036"}
    ]},
    {"target": "GPAT4 (UniProt Q86UL3)", "values": [
      {"measurement": "NP40-soluble protein abundance", "setting": "concentration: 0.1mM", "result": "1.01 ± 0.075"},
      {"measurement": "NP40-soluble protein abundance", "setting": "concentration: 0.5mM", "result": "0.994 ± 0.049"}
    ]},
    {"target": "UniProt Q6V1X1 and related entries", "values": [
      {"measurement": "NP40-soluble protein abundance", "setting": "concentration: 0.1mM", "result": "1.06 ± 0.082"},
      {"measurement": "NP40-soluble protein abundance", "setting": "concentration: 0.5mM", "result": "1.02 ± 0.072"}
    ]},
    {"target": "PARS2 (UniProt Q7L3T8)", "values": [
      {"measurement": "NP40-soluble protein abundance", "setting": "concentration: 0.1mM", "result": "0.991 ± 0.041"},
      {"measurement": "NP40-soluble protein abundance", "setting": "concentration: 0.5mM", "result": "1.05 ± 0.079"}
    ]},
    {"target": "MON1B (UniProt Q7L1V2)", "values": [
      {"measurement": "NP40-soluble protein abundance", "setting": "concentration: 0.1mM", "result": "0.973 ± 0.087"},
      {"measurement": "NP40-soluble protein abundance", "setting": "concentration: 0.5mM", "result": "0.953 ± 0.12"}
    ]},
    {"target": "UniProt Q86X76-2", "values": [
      {"measurement": "NP40-soluble protein abundance", "setting": "concentration: 0.1mM", "result": "1.05 ± 0.06"},
      {"measurement": "NP40-soluble protein abundance", "setting": "concentration: 0.5mM", "result": "1.02 ± 0.074"}
    ]},
    {"target": "DHRS11 (UniProt Q6UWP2)", "values": [
      {"measurement": "NP40-soluble protein abundance", "setting": "concentration: 0.1mM", "result": "1.03 ± 0.03"},
      {"measurement": "NP40-soluble protein abundance", "setting": "concentration: 0.5mM", "result": "0.969 ± 0.036"}
    ]},
    {"target": "RASAL3 (UniProt Q86YV0)", "values": [
      {"measurement": "NP40-soluble protein abundance", "setting": "concentration: 0.1mM", "result": "0.996 ± 0.011"},
      {"measurement": "NP40-soluble protein abundance", "setting": "concentration: 0.5mM", "result": "1.04 ± 0.035"}
    ]},
    {"target": "UniProt Q6VMQ6 and related entries", "values": [
      {"measurement": "NP40-soluble protein abundance", "setting": "concentration: 0.1mM", "result": "0.976 ± 0.023"},
      {"measurement": "NP40-soluble protein abundance", "setting": "concentration: 0.5mM", "result": "0.952 ± 0.048"}
    ]},
    {"target": "UniProt Q709C8 and related entries", "values": [
      {"measurement": "NP40-soluble protein abundance", "setting": "concentration: 0.1mM", "result": "1.05 ± 0.051"},
      {"measurement": "NP40-soluble protein abundance", "setting": "concentration: 0.5mM", "result": "1.03 ± 0.038"}
    ]},
    {"target": "TSEN54 (UniProt Q7Z6J9)", "values": [
      {"measurement": "NP40-soluble protein abundance", "setting": "concentration: 0.1mM", "result": "1.03 ± 0.044"},
      {"measurement": "NP40-soluble protein abundance", "setting": "concentration: 0.5mM", "result": "1.02 ± 0.049"}
    ]}
  ]
}
